For two molecules, binding results are on record in paper doi:10.1101/692004.

Amino acid sequences for entries named in this document (tags omitted).
UniProt Q6R327: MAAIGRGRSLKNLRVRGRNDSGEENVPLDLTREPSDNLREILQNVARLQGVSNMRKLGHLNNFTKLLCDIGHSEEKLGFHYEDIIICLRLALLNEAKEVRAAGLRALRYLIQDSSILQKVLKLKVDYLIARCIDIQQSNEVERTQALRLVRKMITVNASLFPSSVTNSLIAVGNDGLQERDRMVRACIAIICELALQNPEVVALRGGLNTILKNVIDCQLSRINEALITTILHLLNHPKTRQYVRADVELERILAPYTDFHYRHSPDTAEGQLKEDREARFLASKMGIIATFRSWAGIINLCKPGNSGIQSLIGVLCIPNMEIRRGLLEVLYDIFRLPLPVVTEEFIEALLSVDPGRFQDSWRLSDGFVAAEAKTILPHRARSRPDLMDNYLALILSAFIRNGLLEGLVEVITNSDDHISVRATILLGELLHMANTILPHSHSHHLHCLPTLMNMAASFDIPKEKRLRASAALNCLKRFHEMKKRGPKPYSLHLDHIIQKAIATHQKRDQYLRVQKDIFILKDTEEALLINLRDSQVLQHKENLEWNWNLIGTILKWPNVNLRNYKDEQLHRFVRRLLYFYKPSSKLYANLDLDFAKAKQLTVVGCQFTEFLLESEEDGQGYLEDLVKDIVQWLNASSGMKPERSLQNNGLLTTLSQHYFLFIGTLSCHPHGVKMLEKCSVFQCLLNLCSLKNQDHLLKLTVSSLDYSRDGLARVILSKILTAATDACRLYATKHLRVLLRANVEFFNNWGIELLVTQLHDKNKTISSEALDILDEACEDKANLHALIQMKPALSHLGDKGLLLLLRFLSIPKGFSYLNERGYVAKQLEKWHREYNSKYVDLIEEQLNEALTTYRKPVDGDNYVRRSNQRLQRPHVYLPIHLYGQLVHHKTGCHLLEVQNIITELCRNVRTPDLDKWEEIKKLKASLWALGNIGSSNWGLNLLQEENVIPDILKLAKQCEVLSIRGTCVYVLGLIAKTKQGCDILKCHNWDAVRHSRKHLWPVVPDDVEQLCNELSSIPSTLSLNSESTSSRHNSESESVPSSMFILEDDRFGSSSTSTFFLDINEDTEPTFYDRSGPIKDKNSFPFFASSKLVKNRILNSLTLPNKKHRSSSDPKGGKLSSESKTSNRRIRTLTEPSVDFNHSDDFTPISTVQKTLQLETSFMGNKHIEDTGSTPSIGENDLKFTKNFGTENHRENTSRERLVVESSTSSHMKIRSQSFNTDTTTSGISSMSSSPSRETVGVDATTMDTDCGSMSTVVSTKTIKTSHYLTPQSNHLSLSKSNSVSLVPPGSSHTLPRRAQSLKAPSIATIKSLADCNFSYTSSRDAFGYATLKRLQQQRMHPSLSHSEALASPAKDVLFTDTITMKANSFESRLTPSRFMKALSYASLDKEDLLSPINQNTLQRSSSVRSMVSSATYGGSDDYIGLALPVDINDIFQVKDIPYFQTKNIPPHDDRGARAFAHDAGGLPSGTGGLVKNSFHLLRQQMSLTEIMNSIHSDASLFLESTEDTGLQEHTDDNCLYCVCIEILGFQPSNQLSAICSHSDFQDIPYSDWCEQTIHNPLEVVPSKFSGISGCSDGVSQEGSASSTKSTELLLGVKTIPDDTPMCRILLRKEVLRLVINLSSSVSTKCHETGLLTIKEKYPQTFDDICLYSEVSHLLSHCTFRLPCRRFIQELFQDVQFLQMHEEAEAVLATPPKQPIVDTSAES
UniProt Q9Y6W5: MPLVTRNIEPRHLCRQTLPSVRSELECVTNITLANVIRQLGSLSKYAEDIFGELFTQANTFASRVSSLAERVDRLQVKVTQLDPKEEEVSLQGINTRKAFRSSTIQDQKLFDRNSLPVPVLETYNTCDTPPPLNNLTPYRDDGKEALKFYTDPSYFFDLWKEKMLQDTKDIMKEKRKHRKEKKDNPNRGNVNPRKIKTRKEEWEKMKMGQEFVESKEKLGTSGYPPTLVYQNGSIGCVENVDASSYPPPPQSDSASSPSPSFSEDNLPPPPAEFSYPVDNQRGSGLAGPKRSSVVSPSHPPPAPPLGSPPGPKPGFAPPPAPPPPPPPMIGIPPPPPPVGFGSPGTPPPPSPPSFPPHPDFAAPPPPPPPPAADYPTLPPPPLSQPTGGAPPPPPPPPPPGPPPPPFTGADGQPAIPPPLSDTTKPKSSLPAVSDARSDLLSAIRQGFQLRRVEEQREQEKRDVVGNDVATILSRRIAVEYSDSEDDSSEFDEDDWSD

Results are given in words; binding and its absence hold for the method and conditions named. Binding seen in cells or lysates may run through a third protein. Some binding calls cover weakened binding; strength is not graded here. Where a sequence is shown, tags or fusion partners need not be part of it.

What all share (experiment): co-IP
Experiment [1] has as its target T1, Hem1-3xFLAG-V5 V519L (human) (UniProt P55160).
T1 sequence: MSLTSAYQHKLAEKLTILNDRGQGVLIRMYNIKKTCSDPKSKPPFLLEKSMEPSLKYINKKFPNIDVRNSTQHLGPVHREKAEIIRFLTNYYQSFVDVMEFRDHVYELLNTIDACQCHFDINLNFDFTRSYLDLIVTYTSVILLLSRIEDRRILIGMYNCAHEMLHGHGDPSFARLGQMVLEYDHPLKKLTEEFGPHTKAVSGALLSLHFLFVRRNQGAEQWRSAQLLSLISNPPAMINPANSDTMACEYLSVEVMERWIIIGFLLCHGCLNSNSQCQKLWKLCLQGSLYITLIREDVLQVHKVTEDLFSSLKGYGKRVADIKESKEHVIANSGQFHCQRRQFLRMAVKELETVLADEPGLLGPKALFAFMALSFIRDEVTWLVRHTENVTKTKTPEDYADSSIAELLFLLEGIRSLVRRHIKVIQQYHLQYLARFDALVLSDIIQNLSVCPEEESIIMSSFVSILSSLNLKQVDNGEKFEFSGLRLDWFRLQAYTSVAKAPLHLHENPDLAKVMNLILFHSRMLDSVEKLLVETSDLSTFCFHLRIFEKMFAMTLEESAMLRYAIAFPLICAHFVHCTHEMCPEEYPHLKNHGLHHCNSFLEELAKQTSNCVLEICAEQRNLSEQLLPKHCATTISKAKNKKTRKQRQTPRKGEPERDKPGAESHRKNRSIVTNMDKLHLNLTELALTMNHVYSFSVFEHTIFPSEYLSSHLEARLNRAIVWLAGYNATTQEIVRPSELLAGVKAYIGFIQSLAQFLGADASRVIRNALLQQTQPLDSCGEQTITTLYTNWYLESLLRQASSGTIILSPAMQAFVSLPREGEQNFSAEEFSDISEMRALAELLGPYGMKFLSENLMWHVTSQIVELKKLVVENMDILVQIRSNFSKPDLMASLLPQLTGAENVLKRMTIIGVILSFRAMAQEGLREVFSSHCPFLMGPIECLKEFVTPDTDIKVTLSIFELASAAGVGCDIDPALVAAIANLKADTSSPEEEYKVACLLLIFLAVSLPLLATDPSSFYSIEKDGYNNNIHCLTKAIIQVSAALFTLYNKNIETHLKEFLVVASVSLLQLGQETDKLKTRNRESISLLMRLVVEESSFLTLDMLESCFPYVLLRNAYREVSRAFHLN

In experiment [2] the target is T2, Hem1-3xFLAG-V5 M371V (human) (UniProt P55160).
T2 sequence: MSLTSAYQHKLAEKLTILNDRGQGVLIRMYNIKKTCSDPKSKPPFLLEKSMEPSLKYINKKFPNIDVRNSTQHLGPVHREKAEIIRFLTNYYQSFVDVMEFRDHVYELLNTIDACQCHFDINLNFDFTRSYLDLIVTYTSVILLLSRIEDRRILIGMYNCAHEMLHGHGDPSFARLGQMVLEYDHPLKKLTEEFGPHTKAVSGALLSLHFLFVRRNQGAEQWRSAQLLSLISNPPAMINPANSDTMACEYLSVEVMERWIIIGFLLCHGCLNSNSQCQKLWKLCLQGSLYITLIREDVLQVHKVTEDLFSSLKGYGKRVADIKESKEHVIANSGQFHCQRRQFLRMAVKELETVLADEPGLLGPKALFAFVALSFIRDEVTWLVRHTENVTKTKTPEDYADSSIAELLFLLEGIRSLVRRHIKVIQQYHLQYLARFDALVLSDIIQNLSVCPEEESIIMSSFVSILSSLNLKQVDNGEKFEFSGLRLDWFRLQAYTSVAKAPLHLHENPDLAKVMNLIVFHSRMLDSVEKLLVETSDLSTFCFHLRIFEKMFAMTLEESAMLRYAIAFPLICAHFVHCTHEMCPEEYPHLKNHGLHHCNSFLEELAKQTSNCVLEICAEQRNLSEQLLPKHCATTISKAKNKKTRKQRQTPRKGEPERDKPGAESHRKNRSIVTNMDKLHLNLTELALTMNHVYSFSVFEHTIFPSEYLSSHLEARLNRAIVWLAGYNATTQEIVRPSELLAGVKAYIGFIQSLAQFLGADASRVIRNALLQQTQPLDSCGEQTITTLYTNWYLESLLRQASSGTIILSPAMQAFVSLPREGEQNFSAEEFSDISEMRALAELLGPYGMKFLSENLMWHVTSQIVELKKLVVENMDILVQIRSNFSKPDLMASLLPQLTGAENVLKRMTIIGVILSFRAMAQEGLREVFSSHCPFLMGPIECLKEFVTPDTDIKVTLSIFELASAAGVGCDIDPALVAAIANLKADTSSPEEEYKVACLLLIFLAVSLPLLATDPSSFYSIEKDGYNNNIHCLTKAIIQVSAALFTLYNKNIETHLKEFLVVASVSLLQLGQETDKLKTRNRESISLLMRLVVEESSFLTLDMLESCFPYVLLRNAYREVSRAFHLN

Experiment [3] has as its target T3, Hem1-3xFLAG-V5, wild type (Flag-tagged Hem1) (human) (UniProt P55160).
T3 sequence: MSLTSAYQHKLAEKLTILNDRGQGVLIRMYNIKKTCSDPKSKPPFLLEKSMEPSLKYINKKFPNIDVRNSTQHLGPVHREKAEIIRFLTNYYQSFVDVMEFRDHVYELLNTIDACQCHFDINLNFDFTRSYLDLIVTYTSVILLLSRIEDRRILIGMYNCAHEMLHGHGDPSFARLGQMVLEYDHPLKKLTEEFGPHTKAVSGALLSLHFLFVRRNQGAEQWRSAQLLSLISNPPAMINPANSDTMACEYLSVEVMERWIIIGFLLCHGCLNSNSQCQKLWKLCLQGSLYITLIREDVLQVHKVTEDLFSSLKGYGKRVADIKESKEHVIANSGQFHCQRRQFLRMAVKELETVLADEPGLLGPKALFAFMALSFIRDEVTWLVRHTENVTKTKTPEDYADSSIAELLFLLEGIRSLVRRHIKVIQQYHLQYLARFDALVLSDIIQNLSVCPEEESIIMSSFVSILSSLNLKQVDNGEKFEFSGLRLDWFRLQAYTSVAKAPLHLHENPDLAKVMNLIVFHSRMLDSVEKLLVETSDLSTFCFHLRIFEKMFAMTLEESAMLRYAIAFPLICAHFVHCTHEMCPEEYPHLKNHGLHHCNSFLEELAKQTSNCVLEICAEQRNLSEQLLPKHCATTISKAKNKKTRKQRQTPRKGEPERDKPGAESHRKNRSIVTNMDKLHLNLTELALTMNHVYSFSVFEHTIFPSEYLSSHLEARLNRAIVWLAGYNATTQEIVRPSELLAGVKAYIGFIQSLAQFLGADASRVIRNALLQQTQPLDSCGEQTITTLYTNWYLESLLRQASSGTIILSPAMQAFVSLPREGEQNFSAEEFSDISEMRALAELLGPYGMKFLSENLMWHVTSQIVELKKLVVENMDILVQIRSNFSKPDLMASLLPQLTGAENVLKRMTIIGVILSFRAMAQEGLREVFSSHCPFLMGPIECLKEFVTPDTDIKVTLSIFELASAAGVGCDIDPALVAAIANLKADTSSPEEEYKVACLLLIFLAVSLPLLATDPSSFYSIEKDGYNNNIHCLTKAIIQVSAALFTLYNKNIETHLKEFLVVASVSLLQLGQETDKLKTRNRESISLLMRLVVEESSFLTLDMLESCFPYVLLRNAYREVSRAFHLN

Experiment [4] addresses T4, Hem1-3xFLAG-V5 P359L (human) (UniProt P55160).
T4 sequence: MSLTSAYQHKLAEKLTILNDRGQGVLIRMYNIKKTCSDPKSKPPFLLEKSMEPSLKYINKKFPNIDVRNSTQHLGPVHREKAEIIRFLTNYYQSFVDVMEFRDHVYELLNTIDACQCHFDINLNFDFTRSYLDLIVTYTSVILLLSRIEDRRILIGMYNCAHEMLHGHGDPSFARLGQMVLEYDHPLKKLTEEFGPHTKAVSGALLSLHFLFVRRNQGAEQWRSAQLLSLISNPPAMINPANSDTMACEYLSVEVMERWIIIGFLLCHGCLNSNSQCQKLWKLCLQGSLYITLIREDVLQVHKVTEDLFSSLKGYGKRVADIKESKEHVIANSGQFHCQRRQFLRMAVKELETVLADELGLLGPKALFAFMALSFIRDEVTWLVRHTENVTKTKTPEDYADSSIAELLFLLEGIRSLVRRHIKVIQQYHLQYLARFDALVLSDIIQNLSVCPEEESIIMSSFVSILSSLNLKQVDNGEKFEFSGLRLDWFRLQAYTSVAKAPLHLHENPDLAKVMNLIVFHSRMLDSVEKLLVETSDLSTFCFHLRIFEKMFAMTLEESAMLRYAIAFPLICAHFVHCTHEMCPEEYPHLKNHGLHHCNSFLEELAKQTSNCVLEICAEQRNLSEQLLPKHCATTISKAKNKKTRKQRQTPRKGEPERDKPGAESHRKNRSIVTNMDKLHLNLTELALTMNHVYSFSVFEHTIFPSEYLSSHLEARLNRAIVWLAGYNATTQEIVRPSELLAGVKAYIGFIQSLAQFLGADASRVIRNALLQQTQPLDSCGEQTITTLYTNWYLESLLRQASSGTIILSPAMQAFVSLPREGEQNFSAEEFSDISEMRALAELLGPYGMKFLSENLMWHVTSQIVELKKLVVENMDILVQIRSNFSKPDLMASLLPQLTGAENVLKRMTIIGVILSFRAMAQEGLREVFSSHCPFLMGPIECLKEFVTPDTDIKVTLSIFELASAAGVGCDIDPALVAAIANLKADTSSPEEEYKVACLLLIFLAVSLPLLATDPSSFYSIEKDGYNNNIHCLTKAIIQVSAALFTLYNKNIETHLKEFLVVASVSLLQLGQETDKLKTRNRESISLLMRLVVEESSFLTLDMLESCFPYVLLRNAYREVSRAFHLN

In a further experiment the target is myc-Rictor (UniProt Q6R327).

As for “WAVE2, endogenous in 293T cells (from UniProt Q9Y6W5 1-498)”, the binding entry in experiment [1], in experiment [2], in experiment [3] and in experiment [4] was “binds” in each case.

B1: Hem1-3xFLAG-V5, wild type (Flag-tagged Hem1) (protein, UniProt P55160-1 1-1127)
chain: MSLTSAYQHKLAEKLTILNDRGQGVLIRMYNIKKTCSDPKSKPPFLLEKSMEPSLKYINKKFPNIDVRNSTQHLGPVHREKAEIIRFLTNYYQSFVDVMEFRDHVYELLNTIDACQCHFDINLNFDFTRSYLDLIVTYTSVILLLSRIEDRRILIGMYNCAHEMLHGHGDPSFARLGQMVLEYDHPLKKLTEEFGPHTKAVSGALLSLHFLFVRRNQGAEQWRSAQLLSLISNPPAMINPANSDTMACEYLSVEVMERWIIIGFLLCHGCLNSNSQCQKLWKLCLQGSLYITLIREDVLQVHKVTEDLFSSLKGYGKRVADIKESKEHVIANSGQFHCQRRQFLRMAVKELETVLADEPGLLGPKALFAFMALSFIRDEVTWLVRHTENVTKTKTPEDYADSSIAELLFLLEGIRSLVRRHIKVIQQYHLQYLARFDALVLSDIIQNLSVCPEEESIIMSSFVSILSSLNLKQVDNGEKFEFSGLRLDWFRLQAYTSVAKAPLHLHENPDLAKVMNLIVFHSRMLDSVEKLLVETSDLSTFCFHLRIFEKMFAMTLEESAMLRYAIAFPLICAHFVHCTHEMCPEEYPHLKNHGLHHCNSFLEELAKQTSNCVLEICAEQRNLSEQLLPKHCATTISKAKNKKTRKQRQTPRKGEPERDKPGAESHRKNRSIVTNMDKLHLNLTELALTMNHVYSFSVFEHTIFPSEYLSSHLEARLNRAIVWLAGYNATTQEIVRPSELLAGVKAYIGFIQSLAQFLGADASRVIRNALLQQTQPLDSCGEQTITTLYTNWYLESLLRQASSGTIILSPAMQAFVSLPREGEQNFSAEEFSDISEMRALAELLGPYGMKFLSENLMWHVTSQIVELKKLVVENMDILVQIRSNFSKPDLMASLLPQLTGAENVLKRMTIIGVILSFRAMAQEGLREVFSSHCPFLMGPIECLKEFVTPDTDIKVTLSIFELASAAGVGCDIDPALVAAIANLKADTSSPEEEYKVACLLLIFLAVSLPLLATDPSSFYSIEKDGYNNNIHCLTKAIIQVSAALFTLYNKNIETHLKEFLVVASVSLLQLGQETDKLKTRNRESISLLMRLVVEESSFLTLDMLESCFPYVLLRNAYREVSRAFHLN
As to B1, the binding result with myc-Rictor is recorded as “binds weakly”.
